Measured values from US8865750B2, “Small molecule inhibitors of RGS proteins” (The Regents of The University of Michigan, priority 2011, dated 2014).
Where two headings read alike, the source gives them in different places. For at least one compound, name, drawing or mass did not settle the structure.

Protein sequences, listed by entry. Tags and fused reporters are not part of them. Residues count along the entry.
UniProt P00784, 134-345: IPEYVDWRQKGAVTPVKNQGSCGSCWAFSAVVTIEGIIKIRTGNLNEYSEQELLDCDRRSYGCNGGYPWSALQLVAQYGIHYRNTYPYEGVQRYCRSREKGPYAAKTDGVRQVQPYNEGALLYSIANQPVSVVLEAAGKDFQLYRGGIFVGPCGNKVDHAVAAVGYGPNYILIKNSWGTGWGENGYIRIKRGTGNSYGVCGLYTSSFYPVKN

Assays:
papain [1] = target: T1, papain (Carica papaya (Papaya), UniProt P00784); type: biochemical
Text: Papain (Sigma-Aldrich, St. Louis, Mo.) activity was monitored by the increase in fluorescence caused by the liberation of fluorescein from autoquenched fluorescein-conjugated casein (AnaSpec, San Jose, Calif.).

papain [2] = target: T1, papain; details: Blazer et al. 2011; cited from earlier work

**Q.** Which results are given for `Cc1ccc(-n2sc(=O)n(Cc3ccc(F)cc3)c2=O)cc1` [CCG-50014, 4-[(4-fluorophenyl)methyl]-2-(4-methylphenyl)-1,2,4-thiadiazolidine-3,5-dione]?
**A.** inhibition of papain (papain [1]; 30 μM): do not inhibit; inhibition of papain (papain [1]; 100 μM): incapable of inhibiting casein proteolysis by papain; inhibition of papain (papain [2]): failing to inhibit
